# Data as given in publication PMC11649690, “CEP signaling coordinates plant immunity with nitrogen status” (Nature Communications, 2024).
# Protein sequences, listed by entry. Tags and fused reporters are not part of them. Lines headed by an entry give the natural chain unless they say otherwise; changes in a name come on top.
# UniProt Q8L8Y3: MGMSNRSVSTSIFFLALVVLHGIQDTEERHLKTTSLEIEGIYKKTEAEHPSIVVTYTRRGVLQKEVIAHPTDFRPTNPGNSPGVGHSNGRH
# Results are given in words; binding and its absence hold for the method and conditions named.
# Target: T1, RECEPTOR-LIKE KINASE 7 ectodomain (RLK7^ECD) (Arabidopsis thaliana) (UniProt F4I2N7)
# T1 sequence: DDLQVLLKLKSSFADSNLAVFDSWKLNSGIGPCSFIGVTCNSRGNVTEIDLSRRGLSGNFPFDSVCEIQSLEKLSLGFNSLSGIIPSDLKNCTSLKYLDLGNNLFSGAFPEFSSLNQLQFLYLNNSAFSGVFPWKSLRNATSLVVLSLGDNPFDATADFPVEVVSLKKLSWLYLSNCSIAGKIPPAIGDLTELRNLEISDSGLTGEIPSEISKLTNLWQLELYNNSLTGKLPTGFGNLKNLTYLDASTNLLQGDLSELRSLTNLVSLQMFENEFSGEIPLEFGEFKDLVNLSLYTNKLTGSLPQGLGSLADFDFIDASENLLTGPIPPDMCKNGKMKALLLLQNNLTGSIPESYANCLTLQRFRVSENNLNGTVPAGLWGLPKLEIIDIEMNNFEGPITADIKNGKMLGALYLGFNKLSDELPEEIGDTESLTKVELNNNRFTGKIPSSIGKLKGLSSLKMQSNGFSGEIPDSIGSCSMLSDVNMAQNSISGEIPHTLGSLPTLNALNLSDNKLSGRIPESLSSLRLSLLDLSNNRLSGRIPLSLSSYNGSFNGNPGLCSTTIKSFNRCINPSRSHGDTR
# Assay: condition: 300 μM peptide injected into 30 μM receptor; ITC; 300 μM peptide in the syringe injected into 30 μM receptor ectodomain in the cell; 25 °C; 20 mM citrate pH 5.0, 150 mM NaCl (SEC buffer); N fitted to 1; duplicates; both purified
binder,measurement,value
"DFRPTNPGNSPGVGH (peptide, UniProt Q8L8Y3 72-86, looked up, CEP1 peptide, the mature CEP domain cut from the CEP1 precursor, Arabidopsis thaliana; source: synthetic peptide (Pepmic, at least 90% purity)) [C-… ENCODED PEPTIDE 1 (CEP1)]",binding,no binding
